Data: PMC3990689, “Identification and Characterization of ABA Receptors in Oryza sativa” (PLoS ONE, 2014)
No constants are given. Whether binding was seen depends on the method and setting.

What was measured:
[1] = biological target: OsPYL11 (Oryza sativa (japonica cultivar-group)) (UniProt Q6I5C3); experiment: static light scattering; DAWN HELLOS II (Wyatt) at 18°C; OsPYLs about 2 mg/mL; calibrated with albumin monomer standard; oligomerization state; both purified
[2] = biological target: OsPYL11 (Oryza sativa (japonica cultivar-group)) (UniProt Q6I5C3); experiment: AUC; sedimentation velocity at 4°C, 40,000 rpm; OsPYL proteins at OD280 = 0.75; absorbance at 280 nm; oligomerization state; both purified
[3] = biological target: OsPYL11 (Oryza sativa (japonica cultivar-group)) (UniProt Q6I5C3); experiment: SEC; Superdex-200 HR10/300 GL, 25 mM HEPES pH 7.0, 150 mM NaCl; 500 µL OsPYL (OD280 = 0.75) applied; oligomerization state; both purified

B1: OsPYL11 (receptor, UniProt Q6I5C3 1-209)
chain: MVGLVGGGGWRVGDDAAGGGGGGAVAAGAAAAAEAEHMRRLHSHAPGEHQCSSALVKHIKAPVHLVWSLVRSFDQPQRYKPFVSRCVVRGGDLEIGSVREVNVKTGLPATTSTERLELLDDDEHILSVKFVGGDHRLRNYSSIVTVHPESIDGRPGTLVIESFVVDVPDGNTKDETCYFVEAVIKCNLTSLAEVSERLAVQSPTSPLEQ
B1 was tested, and the binding [1] was “no binding (tested: about 2 mg/mL)”, the binding [2] was “no binding (tested: OD280 = 0.75)” and the binding [3] was “no binding (tested: OD280 = 0.75)”.
